{"source": "PubChem BioAssay AID624297", "about": "(National Center for Advancing Translational Sciences (NCATS), 2012)", "note": "Out of some 340,000 compounds screened, about 6,200 (1.8%) were called active. This list was built around the results that the source calls inconclusive (neither active nor inactive); the mix of calls is not that of the screen. Calls come from the whole dose curve; as a rule, active = well fitted activation curve with a large enough effect; inconclusive = small, poorly fitted or top-dose-only effect; inactive = no such curve, though single readings can be large or run the other way. Where the call is inconclusive, the potency comes from a doubtful curve fit. Potency is the fitted concentration of half-maximal effect."}
{"assay": "A quantitative high throughput screen for small molecules that induce DNA re-replication in SW480 colon adenocarcinoma cells; note: nearly all actives have a fitted effect of over 55% in size; for re-replication activation: % of control where 0% means no effect.", "conditions": "Hoechst DNA content imaging, 48 h; re-replication activation: at 46.1 µM (top of the series) unless noted", "procedure,_shortened": "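Image-based DNA-content assay: after two days of treatment, nuclei were labelled with the DNA dye Hoechst and imaged, and hits were compounds raising the count of nuclei showing high fluorescence intensity.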"}
{"smiles": "O=C(CSC1CS(=O)(=O)c2cc([N+](=O)[O-])ccc21)NNC(=O)c1ccc(Cl)cc1", "note": "(stereo not given)", "re-replication activation": "inactive: 4.17%"}
{"smiles": "CCCCCc1cc(=O)oc2c(C(CCN3CCCC3)c3cc(OC)c(OC)c(OC)c3)c(OC)cc(OC)c12", "note": "(stereo not given)", "Potency": "inconclusive: 5.17 µM [activator, partial curve, poor fit]"}
{"smiles": "CCc1cc2c(COC(=O)c3cccc(S(C)(=O)=O)c3)cc(=O)oc2cc1O", "re-replication activation": "inactive: 15.1%"}
{"smiles": "CCC(=O)NC(c1cc(Cl)c2cccnc2c1O)C(C)C", "note": "(stereo not given)", "Potency": "active: 0.231 µM"}
{"smiles": "COc1ccc2ncc(S(=O)(=O)c3ccccc3)c(N3CCN(c4ccccc4)CC3)c2c1", "re-replication activation": "inactive: -9.68%"}
{"smiles": "CCCc1cc2c(OC(=O)CC)c(-c3ccc(C(=O)OCC)o3)c(=O)oc2cc1OC", "Potency": "inconclusive: 18.4 µM [activator, single point]"}
{"smiles": "Cc1ccc(NC(=O)C2CCN(S(=O)(=O)c3ccc4c(c3)NC(=O)C(C)S4)CC2)c(Cl)c1", "note": "(stereo not given)", "Potency": "inconclusive: 18.4 µM [activator, single point]"}
{"smiles": "CCn1c(=O)c(C(=O)CN2CCN(Cc3ccc4c(c3)OCO4)CC2)c(N)n(Cc2ccccc2)c1=O", "re-replication activation": "inactive: 0.989%"}
{"smiles": "CSc1nnc2c3ccccc3n(CCc3ccccc3)c2n1", "Potency": "inconclusive: 18.4 µM [activator, partial curve, poor fit]"}
{"smiles": "CCOC(=O)CSc1nc2sc(C)c(C)c2c(=O)n1N", "Potency": "inconclusive: 0.92 µM [activator, full curve, poor fit]"}
{"smiles": "CCn1c(SCC(=O)c2ccccc2)nnc1-c1cc2cc(Br)ccc2o1", "re-replication activation": "inactive: 7.74%"}
{"smiles": "Cc1cc(OCC(=O)Nc2ccc(F)c(F)c2)nc(C(C)C)n1", "Potency": "active: 23.1 µM"}
{"smiles": "COCCCn1c(SCC(=O)NC2CCCC2)nnc1-c1cccs1", "re-replication activation": "inactive: 0.494%"}
{"smiles": "CC(=O)NC(CCC(=O)O)C(=O)O", "note": "(stereo not given)", "Potency": "inconclusive: 7.08 µM [activator, single point]"}
{"smiles": "Cc1c(C(=O)N2CCN(c3ccccc3)CC2)oc2c(F)cccc12", "Potency": "inconclusive: 29.1 µM [activator, single point]"}
{"smiles": "COc1ccc(S(=O)(=O)N2CCN(Cc3ccc(Cl)cc3)CC2)cc1", "Potency": "inconclusive: 14.6 µM [activator, partial curve]"}
{"smiles": "O=C(/C=C/c1cccnc1)/C=C/c1cccnc1", "Potency": "inconclusive: 2.06 µM [activator, full curve, poor fit]"}
{"smiles": "COc1ccc(/C=C2\\SC(N3CCc4ccccc4C3)=NC2=O)cc1", "re-replication activation": "inactive: -5.67%"}
{"smiles": "Cc1ccc(C(=O)NC(=S)N2CC(C)OC(C)C2)cc1[N+](=O)[O-]", "note": "(stereo not given)", "Potency": "inconclusive: 29.1 µM [activator, single point]"}
{"smiles": "O=C(COc1ccc(F)cc1Cl)Nc1cccc(S(=O)(=O)N2CCCC2)c1", "re-replication activation": "inactive: -16.4%"}
